What all share (assay type): cell-based
Assay [1] deals with T1, RNA polymerase II (Mus musculus) (UniProt P08775+Q8CFI7+P97760+A0A3Q4L2S8+Q80UW8+P61219+P62488+Q923G2+P60898+O08740+Q63871+P62876). Description: Inhibition of RNA polymerase II in mouse B16-F1 migrating cells assessed as fold change in Cav2-RNA stability at 0.1 mM measured by ChIP-seq analysis relative to control cells.
Assay [2] concerns the target T1, RNA polymerase II (Mus musculus). Description: Inhibition of RNA polymerase II in mouse B16-F1 migrating cells assessed as fold change in P4ha2-RNA stability at 0.1 mM measured by ChIP-seq analysis relative to control cells.
Assay [3] shares this target. Description: Inhibition of RNA polymerase II in mouse B16-F1 migrating cells assessed as fold change in Smim7-RNA stability at 0.1 mM measured by ChIP-seq analysis relative to control cells.
Assay [4] shares this target. Description: Inhibition of RNA polymerase II in mouse B16-F1 migrating cells assessed as fold change in Vps50-RNA stability at 0.1 mM measured by ChIP-seq analysis relative to control cells.
The target is the same in assay [5]. Description: Inhibition of RNA polymerase II in mouse B16-F1 migrating cells assessed as fold change in Plpp2-RNA stability at 0.1 mM measured by ChIP-seq analysis relative to control cells.
Assay [6] has the same target. Description: Inhibition of RNA polymerase II in mouse B16-F1 migrating cells assessed as fold change in Ywhaz-RNA stability at 0.1 mM measured by ChIP-seq analysis relative to control cells.
Assay [7] has the same target. Description: Inhibition of RNA polymerase II in mouse B16-F1 migrating cells assessed as fold change in Csrnp2-RNA stability at 0.1 mM measured by ChIP-seq analysis relative to control cells.
Assay [8] has the same target. Description: Inhibition of RNA polymerase II in mouse B16-F1 migrating cells assessed as fold change in Mrpl28-RNA stability at 0.1 mM measured by ChIP-seq analysis relative to control cells.
Assay [9] shares this target. Description: Inhibition of RNA polymerase II in mouse B16-F1 migrating cells assessed as fold change in Zdhhc20-RNA stability at 0.1 mM measured by ChIP-seq analysis relative to control cells.
Assay [10] shares this target. Description: Inhibition of RNA polymerase II in mouse B16-F1 migrating cells assessed as fold change in Tbc1d31-RNA stability at 0.1 mM measured by ChIP-seq analysis relative to control cells.
Assay [11] has the same target. Description: Inhibition of RNA polymerase II in mouse B16-F1 migrating cells assessed as fold change in Lrrc17-RNA stability at 0.1 mM measured by ChIP-seq analysis relative to control cells.
For assay [12] the target is unchanged. Description: Inhibition of RNA polymerase II in mouse B16-F1 migrating cells assessed as fold change in Cnot2-RNA stability at 0.1 mM measured by ChIP-seq analysis relative to control cells.
Assay [13] has the same target. Description: Inhibition of RNA polymerase II in mouse B16-F1 migrating cells assessed as fold change in Rabgap1-RNA stability at 0.1 mM measured by ChIP-seq analysis relative to control cells.
Assay [14] has the same target. Description: Inhibition of RNA polymerase II in mouse B16-F1 migrating cells assessed as fold change in Tyw5-RNA stability at 0.1 mM measured by ChIP-seq analysis relative to control cells.
The target is the same in assay [15]. Description: Inhibition of RNA polymerase II in mouse B16-F1 migrating cells assessed as fold change in Slc19a2-RNA stability at 0.1 mM measured by ChIP-seq analysis relative to control cells.
For assay [16] the target is unchanged. Description: Inhibition of RNA polymerase II in mouse B16-F1 migrating cells assessed as fold change in Usp8-RNA stability at 0.1 mM measured by ChIP-seq analysis relative to control cells.
Assay [17] has as its target Histone-lysine N-methyltransferase EZH2 (Mus musculus) (UniProt Q61188). Description: Inhibition of EZH2 in mouse B16-F1 migrating cells assessed as fold change in H3K27me3-buffered regulated Kif15-mRNA expression at 3 uM measured by ChIP-seq analysis relative to control cells.
Assay [18] shares this target. Description: Inhibition of EZH2 in mouse B16-F1 migrating cells assessed as fold change in H3K27me3-independent regulated Slc2a1-mRNA expression at 3 uM measured by ChIP-seq analysis relative to control cells.
The target is the same in assay [19]. Description: Inhibition of EZH2 in mouse B16-F1 migrating cells assessed as fold change in H3K27me3-dependent regulated Ero1l-mRNA expression at 3 uM measured by ChIP-seq analysis relative to control cells.
For assay [20] the target is unchanged. Description: Inhibition of EZH2 in mouse B16-F1 migrating cells assessed as fold change in H3K27me3-dependent regulated Spry4-mRNA expression at 3 uM measured by ChIP-seq analysis relative to control cells.
Assay [21] has the same target. Description: Inhibition of EZH2 in mouse B16-F1 migrating cells assessed as fold change in H3K27me3-buffered regulated Sox11-mRNA expression at 3 uM measured by ChIP-seq analysis relative to control cells.
The target is the same in assay [22]. Description: Inhibition of EZH2 in mouse B16-F1 migrating cells assessed as fold change in H3K27me3-dependent regulated Fos-mRNA expression at 3 uM measured by ChIP-seq analysis relative to control cells.
For assay [23] the target is unchanged. Description: Inhibition of EZH2 in mouse B16-F1 migrating cells assessed as fold change in H3K27me3-buffered regulated Smc4-mRNA expression at 3 uM measured by ChIP-seq analysis relative to control cells.
The target is the same in assay [24]. Description: Inhibition of EZH2 in mouse B16-F1 migrating cells assessed as fold change in H3K27me3-independent regulated Ankzf1-mRNA expression at 3 uM measured by ChIP-seq analysis relative to control cells.
For assay [25] the target is unchanged. Description: Inhibition of EZH2 in mouse B16-F1 migrating cells assessed as fold change in H3K27me3-buffered regulated Pgbd5-mRNA expression at 3 uM measured by ChIP-seq analysis relative to control cells.
Assay [26] has the same target. Description: Inhibition of EZH2 in mouse B16-F1 migrating cells assessed as fold change in H3K27me3-buffered regulated Phldb2-mRNA expression at 3 uM measured by ChIP-seq analysis relative to control cells.
The target is the same in assay [27]. Description: Inhibition of EZH2 in mouse B16-F1 migrating cells assessed as fold change in H3K27me3-buffered regulated Slc12a7-mRNA expression at 3 uM measured by ChIP-seq analysis relative to control cells.
The target is the same in assay [28]. Description: Inhibition of EZH2 in mouse B16-F1 migrating cells assessed as fold change in H3K27me3-buffered regulated Tgfb2-mRNA expression at 3 uM measured by ChIP-seq analysis relative to control cells.
The target is the same in assay [29]. Description: Inhibition of EZH2 in mouse B16-F1 migrating cells assessed as fold change in H3K27me3-independent regulated Tppp3-mRNA expression at 3 uM measured by ChIP-seq analysis relative to control cells.
The target is the same in assay [30]. Description: Inhibition of EZH2 in mouse B16-F1 migrating cells assessed as fold change in H3K27me3-dependent regulated Hbegf-mRNA expression at 3 uM measured by ChIP-seq analysis relative to control cells.

Sequences of proteins named here, by UniProt entry; tags and fusion partners are left off.
UniProt Q61188, whole entry: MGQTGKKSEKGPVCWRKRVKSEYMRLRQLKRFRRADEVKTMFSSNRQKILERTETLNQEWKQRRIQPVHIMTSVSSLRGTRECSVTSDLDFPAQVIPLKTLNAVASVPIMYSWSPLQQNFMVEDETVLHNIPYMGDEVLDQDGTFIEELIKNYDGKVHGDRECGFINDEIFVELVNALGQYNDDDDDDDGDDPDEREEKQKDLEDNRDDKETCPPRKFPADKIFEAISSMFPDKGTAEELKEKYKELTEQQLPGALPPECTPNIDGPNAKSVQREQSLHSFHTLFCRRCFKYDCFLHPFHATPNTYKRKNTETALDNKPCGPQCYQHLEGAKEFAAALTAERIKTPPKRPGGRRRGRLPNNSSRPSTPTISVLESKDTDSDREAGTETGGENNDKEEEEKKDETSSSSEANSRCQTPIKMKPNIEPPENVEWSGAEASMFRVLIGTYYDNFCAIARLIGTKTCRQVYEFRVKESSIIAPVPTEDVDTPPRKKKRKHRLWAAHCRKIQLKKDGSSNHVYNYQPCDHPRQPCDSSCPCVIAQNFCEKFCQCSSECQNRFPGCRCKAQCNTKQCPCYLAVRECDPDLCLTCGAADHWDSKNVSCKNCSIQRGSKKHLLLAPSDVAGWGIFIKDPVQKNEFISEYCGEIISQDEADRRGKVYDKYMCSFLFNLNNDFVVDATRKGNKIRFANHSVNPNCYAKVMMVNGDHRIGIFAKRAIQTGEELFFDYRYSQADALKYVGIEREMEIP

The text below walks through data of ChEMBL document CHEMBL5674883, “The Heterochromatin Landscape in Migrating Cells and the Importance of H3K27me3 for Associated Transcriptome Alterations” (Cells, 2018).

The structures appear in SMILES notation. Further values from the same series stand in other lists.

On to `OC[C@H]1O[C@@H](n2cnc3cc(Cl)c(Cl)cc32)[C@H](O)[C@@H]1O`, for which the log2FC in [1] was -0.68; in assay [2], 0.72; in assay [3], 0.38; in assay [4], -0.57; in assay [5] it was 0.39; in assay [6], -0.49. For the same compound, the log2FC in assay [7] was -0.94; in assay [8], 0.39; in assay [9], -0.58; in [10], -0.42; in assay [11] it was 1.76; in [12], -0.48. Moreover, the log2FC in assay [13] is -0.62; in assay [14], -0.78; in [15] it was -1.08; in [16] it was -0.46.

On to `CCCc1cc(C)[nH]c(=O)c1CNC(=O)c1cc(-c2ccnc(N3CCN(C)CC3)c2)cc2c1cnn2C(C)C`, for which the log2FC in assay [17] was -0.5; in assay [18], -0.55; in [19], 0.36; in assay [20], -0.45; in assay [21], -0.59; in assay [22], 0.19. Besides, the log2FC in assay [23] was -0.54; in assay [24], -0.72; in assay [25], 0.7; in [26], -0.54; in assay [27], -0.38; in assay [28] it was -0.64. Besides, the log2FC in [29] was determined as 1.57; in assay [30], 0.24.
